Values from PubChem BioAssay AID1508597 (Cure First, 2020).
This is an unselected part of about 2,100 deposited reagents. 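Calls flag viability under 80% in either arm, not effects specific to rucaparib; the reference for percent is not stated.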 The record does not give: the 100% reference.

Purpose: 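Knock-downs altering ovarian cancer cell survival with or without PARP inhibitor rucaparib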 (primary screen)
Cells: human ovarian carcinoma lines grown from tumours: OCI-P5x (papillary serous) and OCI-C5x (clear cell)
Knock-down reagent: siRNA pool against human genes, 1.25 pmol siRNA per well
Duration: 72 h or 96 h, depending on the cell culture
Treatment: rucaparib 20 µM (about IC30) or vehicle, present until read-out
Detection: 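ATP luminescence measured at 72 or 96 h according to the culture, then normalised and expressed as percent viability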
Direction: viability, normalised: higher = more viable cells remaining
Hit rule: 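Active when normalised viability falls below 80 percent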
Calls: active = viability under 80%; inactive = viability 80% or more

viability, normalised (%)	outcome	target	rucaparib or vehicle	cell line	technical replicate
68.9	active	APTX	Rucaparib	OCI-C5x (clear cell)	1
53.5	active	APTX	Rucaparib	OCI-C5x (clear cell)	2
88.7	inactive	APTX	Rucaparib	OCI-C5x (clear cell)	3
70.9	active	APTX	Rucaparib	OCI-P5x (serous)	1
77	active	APTX	Rucaparib	OCI-P5x (serous)	2
58.6	active	APTX	Rucaparib	OCI-P5x (serous)	3
69	active	APTX	Vehicle	OCI-C5x (clear cell)	1
57.4	active	APTX	Vehicle	OCI-C5x (clear cell)	2
61.7	active	APTX	Vehicle	OCI-C5x (clear cell)	3
68.3	active	APTX	Vehicle	OCI-P5x (serous)	1
56	active	APTX	Vehicle	OCI-P5x (serous)	2
72.8	active	APTX	Vehicle	OCI-P5x (serous)	3
43.2	active	BRD8	Rucaparib	OCI-C5x (clear cell)	1
49.2	active	BRD8	Rucaparib	OCI-C5x (clear cell)	2
51.3	active	BRD8	Rucaparib	OCI-C5x (clear cell)	3
55.3	active	BRD8	Rucaparib	OCI-P5x (serous)	1
63.8	active	BRD8	Rucaparib	OCI-P5x (serous)	2
74.5	active	BRD8	Rucaparib	OCI-P5x (serous)	3
42.8	active	BRD8	Vehicle	OCI-C5x (clear cell)	1
46.7	active	BRD8	Vehicle	OCI-C5x (clear cell)	2
43.1	active	BRD8	Vehicle	OCI-C5x (clear cell)	3
63.6	active	BRD8	Vehicle	OCI-P5x (serous)	1
81.9	inactive	BRD8	Vehicle	OCI-P5x (serous)	2
73.7	active	BRD8	Vehicle	OCI-P5x (serous)	3
57.5	active	RAF1	Rucaparib	OCI-C5x (clear cell)	1
57	active	RAF1	Rucaparib	OCI-C5x (clear cell)	2
51.7	active	RAF1	Rucaparib	OCI-C5x (clear cell)	3
101	inactive	RAF1	Rucaparib	OCI-P5x (serous)	1
89.6	inactive	RAF1	Rucaparib	OCI-P5x (serous)	2
76	active	RAF1	Rucaparib	OCI-P5x (serous)	3
54.6	active	RAF1	Vehicle	OCI-C5x (clear cell)	1
69.7	active	RAF1	Vehicle	OCI-C5x (clear cell)	2
54.3	active	RAF1	Vehicle	OCI-C5x (clear cell)	3
101	inactive	RAF1	Vehicle	OCI-P5x (serous)	1
84.4	inactive	RAF1	Vehicle	OCI-P5x (serous)	2
94.2	inactive	RAF1	Vehicle	OCI-P5x (serous)	3

Part of the list above, set out differently.
| viability, normalised (%) | outcome | target | rucaparib or vehicle | cell line | technical replicate |
| --- | --- | --- | --- | --- | --- |
| 57.5 | active | RAF1 | Rucaparib | OCI-C5x (clear cell) | 1 |
| 57 | active | RAF1 | Rucaparib | OCI-C5x (clear cell) | 2 |
| 51.7 | active | RAF1 | Rucaparib | OCI-C5x (clear cell) | 3 |
| 101 | inactive | RAF1 | Rucaparib | OCI-P5x (serous) | 1 |
| 89.6 | inactive | RAF1 | Rucaparib | OCI-P5x (serous) | 2 |
| 76 | active | RAF1 | Rucaparib | OCI-P5x (serous) | 3 |
| 54.6 | active | RAF1 | Vehicle | OCI-C5x (clear cell) | 1 |
| 69.7 | active | RAF1 | Vehicle | OCI-C5x (clear cell) | 2 |
| 54.3 | active | RAF1 | Vehicle | OCI-C5x (clear cell) | 3 |
| 101 | inactive | RAF1 | Vehicle | OCI-P5x (serous) | 1 |
| 84.4 | inactive | RAF1 | Vehicle | OCI-P5x (serous) | 2 |

Continued:
viability, normalised (%)	outcome	target	rucaparib or vehicle	cell line	technical replicate
54.9	active	BCL6	Rucaparib	OCI-C5x (clear cell)	1
40.4	active	BCL6	Rucaparib	OCI-C5x (clear cell)	2
42.4	active	BCL6	Rucaparib	OCI-C5x (clear cell)	3
60.5	active	BCL6	Rucaparib	OCI-P5x (serous)	1
66.4	active	BCL6	Rucaparib	OCI-P5x (serous)	2
68.7	active	BCL6	Rucaparib	OCI-P5x (serous)	3
44.3	active	BCL6	Vehicle	OCI-C5x (clear cell)	1
40.4	active	BCL6	Vehicle	OCI-C5x (clear cell)	2
30.2	active	BCL6	Vehicle	OCI-C5x (clear cell)	3
63.3	active	BCL6	Vehicle	OCI-P5x (serous)	1
64.7	active	BCL6	Vehicle	OCI-P5x (serous)	2
72.8	active	BCL6	Vehicle	OCI-P5x (serous)	3
63.1	active	DTX3L	Rucaparib	OCI-C5x (clear cell)	1
42	active	DTX3L	Rucaparib	OCI-C5x (clear cell)	2
59.6	active	DTX3L	Rucaparib	OCI-C5x (clear cell)	3
62	active	DTX3L	Rucaparib	OCI-P5x (serous)	1
54.4	active	DTX3L	Rucaparib	OCI-P5x (serous)	2
65.5	active	DTX3L	Rucaparib	OCI-P5x (serous)	3
63.3	active	DTX3L	Vehicle	OCI-C5x (clear cell)	1
80.9	inactive	DTX3L	Vehicle	OCI-C5x (clear cell)	2
73.8	active	DTX3L	Vehicle	OCI-C5x (clear cell)	3
66	active	DTX3L	Vehicle	OCI-P5x (serous)	1
69.9	active	DTX3L	Vehicle	OCI-P5x (serous)	2
119	inactive	DTX3L	Vehicle	OCI-P5x (serous)	3
64.1	active	TXNDC9	Rucaparib	OCI-C5x (clear cell)	1
47.6	active	TXNDC9	Rucaparib	OCI-C5x (clear cell)	2
64.8	active	TXNDC9	Rucaparib	OCI-C5x (clear cell)	3
76.3	active	TXNDC9	Rucaparib	OCI-P5x (serous)	1
68.9	active	TXNDC9	Rucaparib	OCI-P5x (serous)	2
84.9	inactive	TXNDC9	Rucaparib	OCI-P5x (serous)	3
42.7	active	TXNDC9	Vehicle	OCI-C5x (clear cell)	1
67	active	TXNDC9	Vehicle	OCI-C5x (clear cell)	2
58.3	active	TXNDC9	Vehicle	OCI-C5x (clear cell)	3
72.2	active	TXNDC9	Vehicle	OCI-P5x (serous)	1
80.1	inactive	TXNDC9	Vehicle	OCI-P5x (serous)	2
85.2	inactive	TXNDC9	Vehicle	OCI-P5x (serous)	3
58.4	active	FAN1	Rucaparib	OCI-C5x (clear cell)	1
71.5	active	FAN1	Rucaparib	OCI-C5x (clear cell)	2
51.7	active	FAN1	Rucaparib	OCI-C5x (clear cell)	3
86.6	inactive	FAN1	Rucaparib	OCI-P5x (serous)	1
85.3	inactive	FAN1	Rucaparib	OCI-P5x (serous)	2
66.4	active	FAN1	Rucaparib	OCI-P5x (serous)	3
51	active	FAN1	Vehicle	OCI-C5x (clear cell)	1
64.7	active	FAN1	Vehicle	OCI-C5x (clear cell)	2
49.3	active	FAN1	Vehicle	OCI-C5x (clear cell)	3
91.3	inactive	FAN1	Vehicle	OCI-P5x (serous)	1
82.7	inactive	FAN1	Vehicle	OCI-P5x (serous)	2
85.1	inactive	FAN1	Vehicle	OCI-P5x (serous)	3
